These are yes or no findings as the source states them, for the method shown. Sequences can lack the tags named with a protein.

From article PMC9425029, “Secretagogin is a Ca^2+-dependent stress-responsive chaperone that may also play a role in aggregation-based proteinopathies” (The Journal of Biological Chemistry, 2022) come the findings set out here.

The assay concerns the target Secretagogin (mouse SCGN) (mouse) (UniProt Q91WD9). Put plainly: SAXS; reducing conditions (5 mM DTT), SCGN about 5-18 mg/ml, without or with 8 mM Ca2+; 50 mM Tris pH 7.5, 100 mM KCl; both purified.

B1: Secretagogin (mouse SCGN) (natural protein, UniProt Q91WD9 1-276, looked up)
chain: MDNARRKTPARLDAACFWQIWQRFDKEEKGYIRETELDAFFDHLLAKSGTEDTLMEENVQKVKEQLMTSHNVSKEGRILMKELASMFLSEDENFLLFFRLETPLDNSVEFMQIWRKYDADSSGFISAAELCNFLRDLFLHHKKNISEAELEEYTSTMMKIFDKNKDGRLDLNDLARILALQENFLLQFKMDASSTEERKRDFEKIFAHYDVSKTGALEGPEVDGFVKDMMELVQPSISGVDLDKFREILLRHCDVNKDGKIQKSELALCLGLKINP
notes: secretagogin, mouse, cloned in pET21b; Used Ca2+-free (apo) or with Ca2+ (holo); the assays tell them apart; also called apo-SCGN; holo-SCGN; source: E. coli BL21-DE3 (pET21b), purified (Ni-NTA-Sepharose, size-exclusion chromatography), decalcified with EDTA
Regarding B1, the binding result is “no binding (condition: reducing conditions (5 mM DTT))”.
